The whole screen tested about 340,000 compounds, of which about 170 (0.05%) were called active. The shares of active, inactive and inconclusive entries below differ from those in the screen. Calls come from the whole dose curve; as a rule, active = well fitted inhibition curve with a large enough effect in the signal ratio, with a control signal flat (not every such curve was filed as active); inconclusive = small, poorly fitted or top-dose-only effect, or effect the other way, or a change in a side signal; inactive = flat fitted curve, though single readings scatter; the % refers to the signal ratio. Potencies beside an inconclusive call are fits to weak or partial responses and may not hold up.
Test: qHTS Assay to Find Inhibitors of Chronic Active B-Cell Receptor Signaling;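 for activity change, negative = inhibition: plate controls were basal doxycycline-induced cells for no effect and cells given 10 µM MG132 for full effect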
Conditions: ABC-DLBCL IkBa-CBG/CBR reporter, luminescence ratio (green luciferase fused to IkBa over red control in TMD8 lymphoma cells), 4 h; activity change, negative = inhibition: at 46.1 µM (top of the series)
Procedure, shortened: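 TMD8 human ABC-DLBCL cells with doxycycline-inducible IκBα–green luciferase fusion and unfused red luciferase, in 0.5% FBS medium; compounds up to 46 uM, 4 h at 37C. Green/red luminescence ratio, filter-overlap corrected, fitted to concentration-response curves.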
Potency is the fitted concentration of half-maximal effect.

Row | SMILES | activity change, negative = inhibition | Potency
1 | COc1cccc(OC)c1C(=O)N1CCN(Cc2ccccc2C(F)(F)F)CC1 | inconclusive: 8.91% | –
2 | CCC(=O)c1ccc(OCc2ccc(C(=O)OC)cc2)c(OC)c1 | – | inconclusive: 3.98 µM [falling, full curve]
3 | CCN(CC)CCN(Cc1cc2cc3c(cc2[nH]c1=O)OCO3)C(=S)NCCCOC | inactive: -11.5% | –
4 | Cc1ccc(NCN2C(=O)C3CC=CCC3C2=O)cc1 (stereo unspecified) | inconclusive: 12% | –
5 | CSc1cccc(NC(=S)N(CCCN2CCCC2)Cc2cccn2Cc2ccc(Cl)cc2)c1 | – | inconclusive: 17.8 µM [falling, partial curve, poor fit]
6 | O=C(COc1cccc(Br)c1)Nc1ccc(Cl)c(S(=O)(=O)N2CCOCC2)c1 | – | inconclusive: 18.4 µM [falling, partial curve, poor fit]
7 | CCn1nc(C)c(CNC(=O)c2cc(COc3ccc(F)cc3Cl)on2)c1C | inconclusive: -0.762% | –
8 | Cc1cccc(-n2c(=O)[nH]c3c(C(N)=O)nc(C(C)C)nc32)c1 | inconclusive: 12% | –
9 | Cc1cccc(C)c1NC(=O)CSc1nc2ccccc2c(=O)[nH]1 | inconclusive: -1.8% | –
10 | CCN(CC(=O)Nc1ccc(NC(C)=O)cc1)C(=O)/C=C/c1ccc([N+](=O)[O-])cc1 | inactive: 13.6% | –
11 | CC(C)n1cnc2c(NCc3ccccc3)nc(NCc3ccccc3)nc21 | inconclusive: 0.124% | –
12 | COC(=O)c1cc(C)sc1NC(=O)CCCC(=O)O | inconclusive: 7.19% | –
13 | CN(CC(=O)Nc1ccccc1N1CCCC1)S(=O)(=O)c1ccc(F)cc1 | inactive: -8.34% | –
14 | Cc1ccc(OCc2ccc(C(=O)Nc3ccc(C(N)=O)cc3)o2)c([N+](=O)[O-])c1 | inconclusive: -24.6% | –
15 | COCC(=O)NNC(=O)Cc1ccc(Cl)cc1 | inconclusive: 17.4% | –
16 | O=C(COC(=O)c1cc(S(=O)(=O)N2CCCCC2)ccc1N1CCOCC1)c1ccccc1 | inconclusive: 0.441% | –
17 | Cn1c(NNC(=O)C(c2ccccc2)c2ccccc2)cc(=O)n(C)c1=O | inconclusive: 19.7% | –
18 | c1ccc(-c2cc(-c3ccccc3)n3ncnc3n2)cc1 | inconclusive: 9.82% | –
19 | COC(OC)c1nc(SCC(=O)Nc2cccc(Cl)c2)ncc1C(=O)O | – | inconclusive: 35.5 µM [falling, single point]
20 | COCC(=O)Nc1nc2n(n1)C(c1ccc(OC)cc1)CC(c1ccc(OC)cc1)N2 (stereo unspecified) | inconclusive: 2.58% | –
21 | CC(C)=CCC/C(C)=C/CNC(=O)C[C@H]1C[C@H](C(=O)N2CCCCC2)[C@@]2(C)c3[nH]c4ccc(Cl)cc4c3CCN2C1=O | inconclusive: -1.15% | –
22 | COCCNC(=O)C1CCCN(S(=O)(=O)c2ccc3c(c2)CC(C)N3C(=O)C2CC2)C1 (stereo unspecified) | – | inconclusive: 2.82 µM [falling, partial curve, poor fit]
23 | Cc1cccc(Nc2ncnc3onc(-c4cccc(Cl)c4)c23)c1 | inactive: 23.9% | –
24 | Cc1ccc(NC(=O)C2COc3ccccc3O2)nc1 (stereo unspecified) | inconclusive: -22% | –
25 | CCOC(=O)C1CCCN(C(=O)/C=C/c2ccccc2[N+](=O)[O-])C1 (stereo unspecified) | – | inconclusive: 6.51 µM [falling, single point]
26 | CC(=O)Nc1cccc(C(=O)/C=C/c2ccc(F)cc2)c1 | inconclusive: -17.5% | –

Part of the list above in order of length of the SMILES, high to low.
Row | SMILES | activity change, negative = inhibition | Potency
3 | CCN(CC)CCN(Cc1cc2cc3c(cc2[nH]c1=O)OCO3)C(=S)NCCCOC | inactive: -11.5% | –
17 | Cn1c(NNC(=O)C(c2ccccc2)c2ccccc2)cc(=O)n(C)c1=O | inconclusive: 19.7% | –
12 | COC(=O)c1cc(C)sc1NC(=O)CCCC(=O)O | inconclusive: 7.19% | –

(more compounds)

Row | SMILES | activity change, negative = inhibition | Potency
27 | O=C1c2cccc3cccc(c23)C(=O)N1c1ccccc1Cl | – | inconclusive: 5.62 µM [falling, partial curve, poor fit]
28 | O=C(O)c1cccc(N2C(=O)c3cc([N+](=O)[O-])cc4cc([N+](=O)[O-])cc(c34)C2=O)c1 | – | inconclusive: 10 µM [rising, partial curve, poor fit]
29 | O=C(c1coc(=O)c(Br)c1)N1CCC(C(O)(c2ccccc2)c2ccccc2)CC1 | inactive: -3.8% | –
30 | Cc1nc(N(C)Cc2ccccc2)c2c(C)c(C)sc2n1 | inconclusive: 10.6% | –
31 | CN(c1ccccc1)c1cc(=O)[nH]c(=O)[nH]1 | inactive: 2.42% | –
32 | CNC(=S)N/N=C(\C)c1ccc2c(c1)OCO2 | – | inconclusive: 35.5 µM [falling, single point]
33 | CCOc1ccc(Cc2n[nH]c(=S)n2N)cc1 | inactive: -0.804% | –
34 | CCO[C@@H]1OC(C(=O)NCc2ccccc2)=C[C@H](C(C)(C)C)[C@H]1CCCO | inconclusive: -4.76% | –
35 | COc1ccc(C(C)=O)cc1COC(=O)CCCN1C(=O)c2ccccc2C1=O | – | inconclusive: 2.51 µM [rising, partial curve, poor fit]
36 | O=C1C=C(Nc2ccccc2C(=O)O)c2ccccc2C1=O | – | inconclusive: 28.2 µM [falling, single point]
37 | O=Cc1cccc(OCc2cccc3ccccc23)c1 | inconclusive: -2.75% | –
38 | Cc1ccc(NC(=O)CC2SCCNC2=O)cc1Cl (stereo unspecified) | inconclusive: 0.335% | –
39 | CCOc1ccccc1NC(=O)Nc1cccc(NC(C)=O)c1 | – | inconclusive: 12.6 µM [falling, partial curve]
40 | Cc1cccc(CC(=O)NC2CC(=O)N(c3ccc4c(c3)OCCO4)C2)c1 (stereo unspecified) | – | inconclusive: 35.5 µM [falling, single point]
41 | Fc1ccc(Nc2nc(SCc3cccc(F)c3)nc3ccccc23)cc1 | – | inconclusive: 35.5 µM [rising, single point]
42 | Cc1ccccc1NC(=O)c1ccno1 | – | inconclusive: 14.1 µM [falling, partial curve, poor fit]
43 | O=c1c2cc([N+](=O)[O-])cc([N+](=O)[O-])c2[nH]n1-c1ccccc1 | inconclusive: -12.9% | –
44 | COC(=O)[C@]1(Cc2ccccc2)N[C@H](CN(C)S(=O)(=O)c2ccc(OC(F)(F)F)cc2)[C@@H]2C(=O)N(C)C(=O)[C@@H]21 | inactive: -0.118% | –
45 | Cc1ccc(-n2c(-c3cccnc3)n[nH]c2=S)c(C)c1 | inactive: 0.94% | –
46 | COc1ccc(CNC(=O)C(=O)c2cn(CC(=O)N3CCOCC3)c3ccccc23)cc1 | – | inconclusive: 11.2 µM [falling, partial curve]
47 | Cc1cccc(OCCCC(=O)Nc2ccc(N(C)C)cc2)c1 | inconclusive: 8.89% | –
48 | CCN(C(=O)CN1C(=O)S/C(=C\c2cccc(Cl)c2)C1=O)C1CCS(=O)(=O)C1 (stereo unspecified) | – | inconclusive: 28.2 µM [falling, single point]
49 | O=C(COc1ccc2c3c(c(=O)oc2c1)CCC3)Nc1ccccn1 | inconclusive: 14% | –
50 | COc1cc(SC)ccc1C(=O)Nc1ccncc1 | inconclusive: -38.2% | –
51 | CCc1ccc(OCC(=O)NC(NC(=S)Nc2ccc(C)cc2C)C(Cl)(Cl)Cl)cc1 (stereo unspecified) | inconclusive: -1.06% | –
52 | O=C1C=C(c2cc3ccccc3s2)C[C@@H](c2ccc(F)cc2)C1 | – | inconclusive: 25.9 µM [rising, partial curve]

Row | SMILES | activity change, negative = inhibition | Potency
53 | Cc1ccc(-c2oc3ncnc(N)c3c2-c2ccc(C)cc2)cc1 | inconclusive: 2.78% [cytotoxic] | –
54 | Nc1ccc(C(=O)Nc2nc3ccccc3s2)cc1 | – | inconclusive: 6.51 µM [falling, single point]
55 | CCOc1ccc(CN(C)CC(=O)Nc2ccc3c(c2)CCC3)cc1OC | inactive: -14.4% | –
56 | COc1ccc(CNC(=O)Nc2cccc(Cl)c2)cc1 | inactive: 4.35% | –
57 | Cc1ccccc1OCC(=O)N(Cc1cccc(F)c1)C1CCS(=O)(=O)C1 (stereo unspecified) | – | inconclusive: 10 µM [falling, partial curve, poor fit]
58 | CNc1nc(SCc2ccccc2)nc(N2CCOCC2)n1 | inconclusive: -1.35% | –
59 | COc1cccc(-c2cc(=O)c3cc(NC(=O)c4ccc(N(C)C)cc4)ccc3[nH]2)c1 | – | inconclusive: 1.3 µM [falling, full curve]
60 | S=c1[nH]nc(Cc2sc(-c3ccccc3)nc2-c2ccccc2)o1 | – | inconclusive: 14.6 µM [activator, single point]
61 | COc1ccc(S(=O)(=O)N2CCCCC2)cc1C(=O)N1CCCC1 | inactive: -0.887% | –
62 | COc1ccccc1C(c1nnnn1CS(=O)(=O)c1ccc(C)cc1)N1CCSCC1 (stereo unspecified) | inconclusive: -0.822% | –
63 | O=C(Nc1cccnc1)Nc1ccc(F)c(Cl)c1 | inconclusive: -0.217% | –
64 | COc1ccc2nc(N3C(=O)CC(Cc4ccc(Cl)cc4)C3=O)sc2c1 (stereo unspecified) | inconclusive: -13.7% | –
65 | CCOC(=O)C1(Cc2cccc(Cl)c2)CCCN(C(=O)c2cc(CC)on2)C1 (stereo unspecified) | inactive: -8.34% | –
66 | Nc1cccc2c1C(=O)N(CC(=O)NC13CC4CC(CC(C4)C1)C3)C2=O | inactive: 6.7% | –
67 | Cc1ccc([C@@H]2CC=C(C(=O)O)[C@H](c3cccc(Cl)c3)N2S(=O)(=O)c2ccccc2C)cc1 | inconclusive: -2.45% | –
68 | CN(c1ccccc1)S(=O)(=O)c1cccc(NC(=O)CCNC(=O)c2ccc([N+](=O)[O-])cc2)c1 | inconclusive: -16% | –
69 | CCCCC(=O)Nc1cccc(NC(=O)C(C)C)c1 | inconclusive: -1.06% | –
70 | CCOc1ccc(S(=O)(=O)N(CCO)CCO)cc1-c1nc2c(C(C)(C)C)nn(C)c2c(=O)[nH]1 | – | inconclusive: 2.06 µM [falling, full curve, poor fit]
71 | C=CCN(C(=O)Nc1ccc2c(c1)nc(C)n2C)c1ccccc1 | – | inconclusive: 14.1 µM [falling, partial curve, poor fit]
72 | Cc1cc(N2CCOCC2)nc(SCc2c(Cl)cccc2Cl)n1 | inconclusive: -27.8% | –
73 | COc1ccccc1/C=C/C1=NC(=C\N(C)C)/C(=O)O1 | – | inconclusive: 29.1 µM [falling, single point]
74 | COc1ccc([C@@H]2C[C@@H](c3ccccc3)Oc3cc(OC)cc(OC)c32)cc1 | inconclusive: 2.83% | –
75 | O=C1C(C=Nc2ccccc2)=C(O)c2ccccc21 | – | inconclusive: 4.11 µM [rising, single point]
76 | CCC(=O)NNc1ncnc2c1cnn2-c1ccccc1 | – | inconclusive: 22.4 µM [rising, partial curve, poor fit]

In the list so far, these contain a furan ring, fused or not.
Row | SMILES | activity change, negative = inhibition | Potency
14 | Cc1ccc(OCc2ccc(C(=O)Nc3ccc(C(N)=O)cc3)o2)c([N+](=O)[O-])c1 | inconclusive: -24.6% | –
53 | Cc1ccc(-c2oc3ncnc(N)c3c2-c2ccc(C)cc2)cc1 | inconclusive: 2.78% [cytotoxic] | –
